Data published in PMC6312924.
Results are given in words; binding and its absence hold for the method and conditions named. In cells and extracts the contact can be indirect. Some entries that bind do so weakly or less than the wild type. Sequences can lack the tags named with a protein.

Target: T1, myc-tagged full length cyclin G-associated kinase (GAK) wildtype (mouse) (UniProt Q3UIZ0)
T1 sequence: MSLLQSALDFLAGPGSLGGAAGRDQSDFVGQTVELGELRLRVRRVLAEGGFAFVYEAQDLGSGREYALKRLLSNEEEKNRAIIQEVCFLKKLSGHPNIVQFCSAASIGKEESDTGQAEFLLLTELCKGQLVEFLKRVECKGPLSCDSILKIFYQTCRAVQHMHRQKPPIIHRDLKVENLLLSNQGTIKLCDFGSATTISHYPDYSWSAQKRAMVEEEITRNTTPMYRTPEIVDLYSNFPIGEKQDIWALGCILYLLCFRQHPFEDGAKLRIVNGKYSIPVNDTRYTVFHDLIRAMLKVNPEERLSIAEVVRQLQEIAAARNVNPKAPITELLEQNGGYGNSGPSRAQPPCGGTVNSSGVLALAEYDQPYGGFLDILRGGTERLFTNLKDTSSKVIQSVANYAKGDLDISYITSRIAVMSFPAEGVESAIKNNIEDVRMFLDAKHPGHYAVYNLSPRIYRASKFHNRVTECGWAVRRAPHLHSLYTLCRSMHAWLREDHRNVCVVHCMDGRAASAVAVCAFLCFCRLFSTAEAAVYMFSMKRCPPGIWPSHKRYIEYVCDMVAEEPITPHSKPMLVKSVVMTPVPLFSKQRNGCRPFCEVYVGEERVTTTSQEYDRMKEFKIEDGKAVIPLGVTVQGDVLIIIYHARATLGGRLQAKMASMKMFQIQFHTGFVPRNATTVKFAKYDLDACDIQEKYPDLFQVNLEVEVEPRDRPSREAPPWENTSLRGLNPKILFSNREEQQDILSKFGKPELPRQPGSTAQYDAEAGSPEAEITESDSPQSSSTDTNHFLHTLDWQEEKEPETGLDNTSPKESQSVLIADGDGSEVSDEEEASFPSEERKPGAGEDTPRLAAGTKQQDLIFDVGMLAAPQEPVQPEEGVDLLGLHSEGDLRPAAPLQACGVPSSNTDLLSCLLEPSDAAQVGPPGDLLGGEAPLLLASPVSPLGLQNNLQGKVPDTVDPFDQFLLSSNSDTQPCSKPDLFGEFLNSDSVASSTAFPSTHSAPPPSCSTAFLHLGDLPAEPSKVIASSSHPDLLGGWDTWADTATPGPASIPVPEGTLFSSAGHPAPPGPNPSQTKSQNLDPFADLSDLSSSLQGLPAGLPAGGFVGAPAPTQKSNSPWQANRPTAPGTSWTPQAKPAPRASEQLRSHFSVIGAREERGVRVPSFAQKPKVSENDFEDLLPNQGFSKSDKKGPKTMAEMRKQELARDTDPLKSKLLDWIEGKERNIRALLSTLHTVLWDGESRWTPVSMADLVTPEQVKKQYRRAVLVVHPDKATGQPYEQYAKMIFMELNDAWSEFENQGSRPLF
Assay: co-IP; HEK 293T cells co-transfected with myc-tagged FL GAK and the HA-tagged partner; GAK immunoprecipitated (GAK antibody), partner detected by blot; HA- and myc-tagged pRK5 vectors as IP controls

B1: HA-tagged Sipa1L1 Act1 domain (domain or fragment, UniProt Q8C0T5 1-627)
chain: MTSLKRSQTERPVTADRASVVSTDGAPKVHTDDFYMRRFRSQNGSLGSSVMAAVGPPRSEGPHHITSTPGVPKMGVRARIADWPPRKENVKESSRSSQEIETSSCLESLSSKGSPVSQGSSVSLNSNDSAMLKSIQNTLKNKTGPAESMDSRFLMPEAYPSSPRKALRRIRQRSNSDITISELDVDSFDECISPTYKSGPSLHREYGSTSSIDKQGTSGDSFFDLLKGYKDDRSDRGPTPTKLSDFLITGGGKGSGFSLDVIDGPISQRENLRLFKEREKPLKRRSKSETGDSSIFRKLRNAKGEELGKSSDLEDNRSEDSVRPWTCPKCFAHYDVQSILFDLNEAIMNRHNVIKRRNTTTGASAAAVASLVSGPLSHSASFSSPMGSTEDLNSKGSLGMDQGDDKSNELVMSCPYFRNEIGGEGERKISLSKSNSGSFSGCESTSFESALSSHCTNAGVAVLEVPKESLMLHLDRVKRYTVEHVDLGAYYYRKFFYQKEHWNYFGADENLGPVAVSIRREKPEDMKENGSPYNYRIIFRTSELMTLRGSVLEDAIPSTAKHSTARGLPLKEVLEHVIPELNVQCLRLAFNTPKVTEQLMKLDEQGLNYQQKVGIMYCKAGQSTEEE
With B1 the binding was “binds”.
